The target in this experiment is T1, human TLR8-HA (hTLR8-HA) (human) (UniProt Q9NR97).
T1 sequence: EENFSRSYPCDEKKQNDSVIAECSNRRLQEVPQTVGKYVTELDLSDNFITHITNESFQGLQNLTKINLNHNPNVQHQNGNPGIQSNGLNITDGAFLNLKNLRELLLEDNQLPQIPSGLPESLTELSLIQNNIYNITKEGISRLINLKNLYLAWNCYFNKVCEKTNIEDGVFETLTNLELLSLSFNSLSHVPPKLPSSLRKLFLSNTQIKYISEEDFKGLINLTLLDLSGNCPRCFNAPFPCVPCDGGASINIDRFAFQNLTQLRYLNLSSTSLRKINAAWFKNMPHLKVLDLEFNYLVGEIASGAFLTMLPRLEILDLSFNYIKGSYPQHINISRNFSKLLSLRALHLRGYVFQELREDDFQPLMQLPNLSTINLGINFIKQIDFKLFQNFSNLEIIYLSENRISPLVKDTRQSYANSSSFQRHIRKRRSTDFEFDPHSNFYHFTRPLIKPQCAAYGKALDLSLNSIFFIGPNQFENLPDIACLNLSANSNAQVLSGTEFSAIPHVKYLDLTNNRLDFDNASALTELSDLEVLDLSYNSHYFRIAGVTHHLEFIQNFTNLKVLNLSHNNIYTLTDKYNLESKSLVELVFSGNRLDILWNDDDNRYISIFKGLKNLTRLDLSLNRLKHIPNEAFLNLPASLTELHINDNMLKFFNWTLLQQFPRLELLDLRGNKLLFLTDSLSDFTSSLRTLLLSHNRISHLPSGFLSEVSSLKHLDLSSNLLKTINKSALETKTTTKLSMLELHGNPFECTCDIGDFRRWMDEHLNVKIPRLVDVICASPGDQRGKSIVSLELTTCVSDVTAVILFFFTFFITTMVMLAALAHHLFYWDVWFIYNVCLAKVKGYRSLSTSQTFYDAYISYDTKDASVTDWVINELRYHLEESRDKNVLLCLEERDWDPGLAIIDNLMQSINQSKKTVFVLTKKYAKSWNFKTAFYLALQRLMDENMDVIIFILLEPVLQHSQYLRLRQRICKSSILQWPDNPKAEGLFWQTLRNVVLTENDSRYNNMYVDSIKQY
Kind of experiment: affinity purification with mass spectrometry; anti-HA immunoprecipitation from HEK293 cells transfected with TLR4 with or without TLR8-HA, with and without stimulation; label-free quantitative MS, six experiments per group.

No constants are given. Whether binding was seen depends on the method and setting. Binding seen in cells or lysates may run through a third protein. These calls come from enrichment with a bait or labelling near it, and not all partners need be listed. Where a sequence is shown, tags or fusion partners need not be part of it.

B1: protein unc-93 homolog B1 (UNC93B1) (protein, UniProt Q9H1C4 1-597)
chain: MEAEPPLYPMAGAAGPQGDEDLLGVPDGPEAPLDELVGAYPNYNEEEEERRYYRRKRLGVLKNVLAASAGGMLTYGVYLGLLQMQLILHYDETYREVKYGNMGLPDIDSKMLMGINVTPIAALLYTPVLIRFFGTKWMMFLAVGIYALFVSTNYWERYYTLVPSAVALGMAIVPLWASMGNYITRMAQKYHEYSHYKEQDGQGMKQRPPRGSHAPYLLVFQAIFYSFFHLSFACAQLPMIYFLNHYLYDLNHTLYNVQSCGTNSHGILSGFNKTVLRTLPRSGNLIVVESVLMAVAFLAMLLVLGLCGAAYRPTEEIDLRSVGWGNIFQLPFKHVRDYRLRHLVPFFIYSGFEVLFACTGIALGYGVCSVGLERLAYLLVAYSLGASAASLLGLLGLWLPRPVPLVAGAGVHLLLTFILFFWAPVPRVLQHSWILYVAAALWGVGSALNKTGLSTLLGILYEDKERQDFIFTIYHWWQAVAIFTVYLGSSLHMKAKLAVLLVTLVAAAVSYLRMEQKLRRGVAPRQPRIPRPQHKVRGYRYLEEDNSDESDAEGEHGDGAEEEAPPAGPRPGPEPAGLGRRPCPYEQAQGGDGPEEQ
On to B1, for which the binding entry was “binds”.
